We go through 16 compounds from PubChem BioAssay AID330 (DTP/NCI, 2004).

In this experiment the test system is P388 leukemia ip, CD2F1 mice, survival T/C. The experiment can be described thus: NCI In Vivo Anticancer Drug Screen. Data for tumor model P388 Leukemia (intraperitoneal) in CD2F1 (CDF1) mice. As to conditions: T/C endpoint: median survival time, higher T/C = longer survival.
Where [1] appears, read: dose: 100.0 mg/kg/injection, schedule: Q01DX009 (ip), vehicle: saline with Tween-80.
Where [2] appears, read: dose: 200.0 mg/kg/injection, schedule: Q01DX009 (ip), vehicle: saline.
[3] abbreviates: dose: 200.0 mg/kg/injection, schedule: Q01DX009 (ip), vehicle: saline with Tween-80.
Setting [4] is: dose: 240.0 mg/kg/injection, schedule: Q01DX005 (ip), vehicle: saline with Tween-80.

Molecules are shown by their SMILES. The list does not hold the whole screen: it is rich in T/C values a quarter to a half above the control, in often repeated tests (any T/C) and in doses without a T/C. Further doses and runs are listed elsewhere. T/C gives the treated animals as a percentage of the vehicle group. Some doses have a count of surviving animals in place of a T/C: the source holds a T/C of zero for them, seemingly a mark for toxic or unscored doses. Some survivor counts are full or nearly so, which does not show that the dose was tolerated: the source hardly ever lists a survival T/C far under the control, and the zero likely stands for such cases as well. Counts of survivors are from the toxicity check (mostly the fifth day) where no day follows; animals may have died later. Schedules are NCI's codes, read here as Q, the interval in days (D) or hours (H), X, the number of doses. Where survival is the endpoint, the PubChem record calls one and a half times the control and up active, and a quarter to a half above the control has no call in these data; cut-offs in other NCI protocols can differ. Some T/C values are followed by the survivors on the day toxicity was checked, most often the fifth; without a count, all were alive then.

As to `O=C(C[n+]1ccccc1)N/N=C/c1ccc([N+](=O)[O-])s1`, the survivor count is recorded as 3 of 6 (dose: 50.0 mg/kg/injection, schedule: Q01DX009 (ip), vehicle: saline with Tween-80); 0 of 6 (dose: 50.0 mg/kg/injection, schedule: Q01DX009 (ip), vehicle: saline); 0 of 6 under setting [1]; 0 of 6 (dose: 100.0 mg/kg/injection, schedule: Q01DX009 (ip), vehicle: saline); 0 of 6 under setting [2].
As for `O=C(CC1(O)C(=O)N(CN2CCCCC2)c2ccccc21)c1ccccc1` (stereo not drawn), the survivor count under setting [3] is 6 of 6.
Turning to `C[n+]1ccc2cc(N)c3c4ccccc4sc3c2c1`, the T/C is, setting by setting: (dose: 6.25 mg/kg/injection, schedule: Q01DX009 (ip), vehicle: Klucel (hydroxypropylcellulose) (HPC)) 133 % of control; (dose: 12.5 mg/kg/injection, schedule: Q01DX009 (ip), vehicle: Klucel (hydroxypropylcellulose) (HPC)) 139 % of control. Further, the survivor count (dose: 25.0 mg/kg/injection, schedule: Q01DX009 (ip), vehicle: Klucel (hydroxypropylcellulose) (HPC)) was 6 of 6 and the survivor count (dose: 50.0 mg/kg/injection, schedule: Q01DX009 (ip), vehicle: Klucel (hydroxypropylcellulose) (HPC)) is reported as 0 of 6.
Turning to `O=C(CCCCCCCCc1ccc(O)c(O)c1)c1c(O)cccc1O`, the survivor count (dose: 6.0 mg/kg/injection, schedule: Q01DX009 (ip), vehicle: Klucel (hydroxypropylcellulose) (HPC)) is given as 6 of 6.
On to `C[N+]1(Cc2ccccc2[N+](=O)[O-])CCCC1`, for which the survivor count (dose: 37.5 mg/kg/injection, schedule: Q01DX009 (ip), vehicle: saline with Tween-80) was 0 of 6; the survivor count (dose: 75.0 mg/kg/injection, schedule: Q01DX009 (ip), vehicle: saline with Tween-80) was 0 of 6; the survivor count (dose: 150.0 mg/kg/injection, schedule: Q01DX009 (ip), vehicle: saline with Tween-80) is 0 of 6.
Regarding `OCc1c(CO)c(C(F)(F)F)n2c1CCC2`, under “dose: 200.0 mg/kg/injection, schedule: Q01DX009 (ip), vehicle: Klucel (hydroxypropylcellulose) (HPC)”, the survivor count was 3 of 6.
On to `CC(=O)NC1C(S[As](C)C)OC(COC(C)=O)C(OC(C)=O)C1OC(C)=O` (stereo not drawn), for which, under setting [1], the T/C was 125 % of control [5 of 6 alive].
As for `Nc1ncc[nH]c1=O`, the survivor count under setting [2] is 3 of 6.
In the case of `COc1cc(N=Nc2ccc(N=Nc3ccc4cc(S(=O)(=O)O)cc(S(=O)(=O)O)c4c3)c(C)c2)c(C)cc1NC(=O)c1ccc(NC(=O)c2ccc(N)cc2)cc1`, where the note is “dose: 100.0 mg/kg/injection, schedule: Q01DX005 (ip), vehicle: Klucel (hydroxypropylcellulose) (HPC)”, the T/C is 126 % of control.
`Cc1cc(=O)oc2cc(OC(=O)Nc3ccc(Cl)cc3C(F)(F)F)ccc12`: the survivor count under setting [4] was 5 of 6.
As for `FC(F)(F)c1cccc(N=c2ccn3ccccc3c2)c1`, the survivor count under setting [1] was 1 of 6 and the survivor count under setting [3] is reported as 0 of 6.
As for `Nc1[nH]c(=O)ncc1-c1cccc(Cl)c1`, the survivor count reads like this: (dose: 120.0 mg/kg/injection, schedule: Q01DX005 (ip), vehicle: saline with Tween-80) 2 of 6; under setting [4], 1 of 6.
For `O=[N+]([O-])c1cccn2nnnc12`, the survivor count by setting is: under setting [3], 6 of 6; (dose: 400.0 mg/kg/injection, schedule: Q01DX009 (ip), vehicle: saline with Tween-80) 4 of 6.
For the compound `Cc1sc2ccccc2c(=O)c1CCl`, the survivor count under setting [4] is reported as 4 of 6.
With `CC(C)(C)NC1=C([N+](=O)[O-])CCCC1`, under “dose: 200.0 mg/kg/injection, schedule: Q01DX005 (ip), vehicle: saline with Tween-80”, the survivor count is 3 of 6.
With `CCCCCCCCOc1cc2cc(O)oc3cc(=O)cc(o1)c23`, the T/C (dose: 240.0 mg/kg/injection, schedule: Q01DX005 (ip), vehicle: saline) was 126 % of control.
